For 1 substance, binding results are on record in article PMC4336944.

This assay addresses T1, Flexi-cloned Halo-TNIP2 (with the C-terminal valine cloning scar), transiently expressed from the CMV promoter (human) (UniProt Q8NFZ5).
T1 sequence: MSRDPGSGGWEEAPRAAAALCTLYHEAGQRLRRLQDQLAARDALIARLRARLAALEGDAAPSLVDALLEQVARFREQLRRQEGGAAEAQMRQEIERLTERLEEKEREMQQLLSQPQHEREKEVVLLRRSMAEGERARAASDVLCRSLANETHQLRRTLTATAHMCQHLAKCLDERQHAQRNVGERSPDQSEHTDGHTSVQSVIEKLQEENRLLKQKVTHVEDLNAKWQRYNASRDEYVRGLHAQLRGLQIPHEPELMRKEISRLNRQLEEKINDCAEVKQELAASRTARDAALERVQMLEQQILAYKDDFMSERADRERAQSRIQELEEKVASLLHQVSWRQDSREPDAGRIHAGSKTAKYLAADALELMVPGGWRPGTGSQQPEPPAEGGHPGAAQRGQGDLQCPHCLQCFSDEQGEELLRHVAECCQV
The assay is described as follows: pull-down; Halo affinity purification from whole cell extracts of transfected HEK293T cells, TEV eluates analysed by SDS-PAGE and Western blotting (anti-PTPN13, anti-TNIP2, anti-FLAG). A general note: In western blotting, separated proteins are transferred to a membrane and probed.

These are yes or no findings as the source states them, for the method shown. In cells and extracts the contact can be indirect. A result given as binding can be weak or reduced; the word gives no strength.

On to “FLAG-tagged PDZ domain region of PTPN13 (903 aa region with the five PDZ domains) (domain or fragment)”, for which the binding result was “binds”.
